# Primary screen of a compound library

Amino acid sequences for entries named in this document (tags omitted).
UniProt E9BF75, entry or part of it: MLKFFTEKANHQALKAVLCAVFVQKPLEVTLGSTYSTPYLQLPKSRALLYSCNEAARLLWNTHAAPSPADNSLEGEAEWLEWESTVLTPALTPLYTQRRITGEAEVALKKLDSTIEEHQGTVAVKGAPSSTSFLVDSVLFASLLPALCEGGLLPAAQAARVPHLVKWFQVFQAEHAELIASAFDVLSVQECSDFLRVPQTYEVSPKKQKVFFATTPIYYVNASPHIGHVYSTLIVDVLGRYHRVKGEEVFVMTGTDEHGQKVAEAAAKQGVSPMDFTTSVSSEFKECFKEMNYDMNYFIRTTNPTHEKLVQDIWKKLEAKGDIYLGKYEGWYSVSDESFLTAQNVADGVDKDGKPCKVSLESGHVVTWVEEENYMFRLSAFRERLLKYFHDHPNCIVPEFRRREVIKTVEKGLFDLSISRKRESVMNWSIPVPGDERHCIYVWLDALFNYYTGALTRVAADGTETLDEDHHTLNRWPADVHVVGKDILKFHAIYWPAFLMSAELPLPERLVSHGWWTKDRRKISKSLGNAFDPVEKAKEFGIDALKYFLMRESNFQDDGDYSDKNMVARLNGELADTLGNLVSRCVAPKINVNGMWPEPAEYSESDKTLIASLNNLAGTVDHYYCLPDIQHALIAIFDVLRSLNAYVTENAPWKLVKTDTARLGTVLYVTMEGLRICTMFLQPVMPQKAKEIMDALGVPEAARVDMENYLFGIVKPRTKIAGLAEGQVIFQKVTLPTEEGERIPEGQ

A: 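Assay on Mycobacterium tuberculosis, filed only as a heat shock assay from Cornell; the read-out is not stated. The concentration is filed as 10 mM, unlikely as a test dose, so the dose is not known. Higher reads as stronger inhibition (inferred: compounds with an IC50 in retests scored well above the rest). Size under these conditions: about 69,000 compounds, about 930 of them at 50% or above in at least one test.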
B: 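Primary screen of methionyl-tRNA synthetase; the read-out is not stated. Target: Methionyl-tRNA synthetase (putative), Leishmania donovani (UniProt E9BF75). The test concentration is not given. Values are per cent inhibition. Size under these conditions: about 68,000 compounds, about 24 of them at 50% or above in at least one test.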
C: 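Whole-cell assay for inhibitors of Mycobacterium tuberculosis growth, labelled Cornell in the record; the read-out is not stated. The concentration is filed as 10 mM, unlikely as a test dose, so the dose is not known. The record gives no direction; compounds strong in two other growth screens of this library score well above the rest, so higher reads as stronger inhibition. Size under these conditions: about 53,000 compounds, about 900 of them at 50% or above in at least one test.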

Results are percentages, as filed.
The controls that fix the scale are not given in the record; negative values are as filed.
Compounds were drawn at random from those tested, without regard to their results.
A dash means the value is not listed here; it may have been measured.

structure	A	B	C
CCCN(CCC)CCNc1c(-c2ccccc2)c(=O)c1=O	-22.99	10.38	-
COC(=O)C1CN(Cc2nc(C(C)(C)C)cs2)C[C@@H](C)O1 (stereo partly drawn)	-41.68	23.92	-
CNC(=O)c1cc2c(nc1NCC1CC1)CCN(S(C)(=O)=O)CC2.O=C(O)C(F)(F)F	-28.79	-	24.81
CN1CC(=O)N(c2ccccc2)CC12CCN(S(C)(=O)=O)C2.O=C(O)C(F)(F)F (stereo not drawn)	-16.53	-	-23.3
COCCC(=O)N1CC2(CCN(Cc3ccncc3)CC2)C1	6.112	15.93	5.141
COc1cc(N2C[C@H]3OCC[C@H]3[C@H](C(=O)NC3CC3)C2)ncn1	-	20.5	-
CC(=O)N1CCC(N2CCN3C(=O)N(Cc4ccccn4)C[C@H]3C2)CC1	-	12.03	-
CC(C)n1nc(CNc2ncccn2)c2c1CN(C)CC2	-	11.54	-
Cc1nn(C)cc1CNC(=O)c1cn(CCC2CCCCN2)nn1 (stereo not drawn)	-4.893	12.68	22.57
Cn1cnnc1CCNC(=O)c1cnn(Cc2ccccc2)c1	-11.8	14.21	-
COc1ccc(-n2ccnc2-c2cnc(C(C)C)nc2)cc1C(=O)O	13.81	6.183	-29.5
Cc1csc(CN2CC(CO)Oc3ccccc32)n1 (stereo not drawn)	-12.28	4.348	26.95
CC(C)c1nc2n(n1)CC(NCc1nnc(-c3ccco3)o1)CC2 (stereo not drawn)	3.414	9.804	9.91
C[C@H]1C[C@@H]2CCN(C(=O)c3ccncc3)C[C@H]2O1	-	12.39	-
O=C(NCCCn1ccnc1)NCC(c1ccco1)N1CCCC1 (stereo not drawn)	5.422	18.23	-
Cn1ccc(C(=O)N2CCN(c3ncccn3)CC2)cc1=O	13.72	7.843	11.78
CCc1ncc(-c2nccn2-c2cccc(CC(=O)O)c2)cn1	6.975	12.1	25.25
COc1cc(C(=O)N(C)Cc2cc(C(=O)O)c(C)o2)cc(OC)c1OC	6.088	12.2	1.225
COCC(=O)Nc1cnc(N2CCOCC2)nc1	-2.641	11.18	-1.281
Cc1ccccc1C(=O)NC[C@@H]1CCN(C(=O)c2cccn2C)C[C@H]1O	8.089	-2.787	-
CN(C(=O)C1CSCN1S(=O)(=O)c1ccc(F)cc1)C1CC1 (stereo not drawn)	-1.905	15.24	-22.55
O=S(=O)(NCc1cccnc1OC1CCCC1)N1CCOCC1	-24.87	12.37	5.267
Cc1cc(C[C@@H]2COC[C@@H]2NC(=O)CN2CCc3ccccc3C2)on1	-2.774	1.6	-
CCCNC(=O)C1CCN(CC(O)c2ccccc2)CC1 (stereo not drawn)	-2.911	15.22	-3.851
O=C(c1ccoc1)N1CC[C@@H]2O[C@@H](COCc3ccccn3)CC[C@@H]21	-	4	-
CCCN1CC2(CCN(C)CC2)CC1C(=O)NCc1cc(C)nn1C (stereo not drawn)	-32.2	14.34	10.37
CN1CCC(c2n[nH]c3ncccc23)C1.O=CO (stereo not drawn)	50.56	-	15.26
CN(Cc1ccncc1)C1CC2(CCN(c3ncc(F)cn3)CC2)C1	-	22.63	-
COc1ccc(C(C)N(C)Cc2c(C3CC3)[nH]c3ncccc23)cc1 (stereo not drawn)	-	22.33	-
CC1(C)CNC(=O)c2nc(-c3nnc(-c4ccccc4)[nH]3)[nH]c2C1	15.41	11.96	8.497
COCCCC1CCCCN1Cc1cnn(C)c1C1CC1 (stereo not drawn)	13.58	0.2674	-
O=C(NC[C@H]1COCc2nc3cc(F)ccc3n21)c1cccnc1	-9.199	0.339	-23.95
CCCNC(=O)C(C)Nc1ccn(Cc2ccccn2)n1 (stereo not drawn)	-18.42	12.03	-
O=C(Cc1ccc(F)cc1)NCCNc1cc(N2CCCC2)ncn1	-9.709	7.508	-13.06
CN1CC(=O)N(C2CCNC2)Cc2c(NC3CCCC3)ncnc21 (stereo not drawn)	-20.52	9.143	-
Cc1noc([C@]23COC[C@H]2CN(C(=O)N2CCCC2)C3)n1	-	15.58	-
Cn1cc(-c2ncc3c(c2C(=O)O)CCN(Cc2ccco2)C3)cn1	-	4.372	-
O=C(Nc1cccc(CNCc2ccccn2)c1)C1CCCC1	9.813	14.29	-
O=C(O)C(F)(F)F.c1ccc(OCc2nnn3c2CN(c2ncccn2)CCC3)nc1	6.859	-	14.37
Cn1ccc(C2CCCCN2C(=O)c2cccc(-n3cccn3)c2)n1 (stereo not drawn)	-14.12	9.358	-
I.c1ccc(Sc2ccc3c(c2)OCO3)c(CNC2=NCCN2)c1	5.756	-	14.61
Cc1cccc(CN2CCc3c(nc(N4CCC(C)CC4)[nH]c3=O)C2)n1	7.38	22.26	21.09
Cc1ncsc1C(=O)NC1CCN(CCC(N)=O)CC1	14.3	14.98	8.071
Cc1nc(C)n(CC2CCCN(CCOc3cccc(C#N)c3)C2)n1 (stereo not drawn)	-3.734	-3.922	-31.62
CCCS(=O)(=O)N1C[C@@H]2CN(Cc3ccco3)CCO[C@@H]2C1	-	8.904	-
Fc1ccc(-c2noc([C@@H]3Cc4nc[nH]c4CN3)n2)cc1	7.159	4.945	-
COCCN1CCC(CNC(=O)c2ccnc(-n3ccnc3)c2)CC1	3.022	20.1	-23.45
Cc1nn(C)c(Cl)c1S(=O)(=O)N(C)C	1.109	11.32	10.57
O=C(NCCC1=CCCCC1)c1ccc(-n2cccc2)nc1	-0.9994	9.167	12.76
CCC(CO)NCc1ccc(-c2ccc(F)c(Cl)c2)o1 (stereo not drawn)	-	22.63	-
Cc1cccc(N2CCC3(CCCN(C(=O)c4cccnc4)C3)C2)n1.O=C(O)C(F)(F)F.O=C(O)C(F)(F)F (stereo not drawn)	-32.42	-	-
CN1CCN(Cc2cccc(C#N)c2)Cc2cccnc21.O=C(O)C(F)(F)F.O=C(O)C(F)(F)F	-29.3	-	22.8
COc1cccnc1NC(=O)COc1c(C)cccc1C	-24.57	14.13	-10.57
CCNC(=O)C1CCN(c2cc(-c3ccccc3F)nc3ccnn23)C1 (stereo not drawn)	-21.28	8.462	14.22
Cc1ccc(CN(CCCn2ccnc2)Cc2[nH]cnc2C)s1	-	14.79	-
COc1ccccc1NC(=O)N(CCO)Cc1ccsc1	11.37	4.715	-2.697
N#CC1(C(=O)N2CCN(Cc3cscn3)CC2)CCCCC1	-17.65	20.67	-
O=C(O)C(F)(F)F.O=C1CC[C@]2(CC[C@@H](NCc3ccc4c(c3)OCO4)CC2)N1	-15.91	-	-
CCCn1ncc(CN2C[C@@H]3CCCN3C[C@@H]2Cc2ccccc2)c1C	-	20.9	-
O=C(O)C(F)(F)F.[H][C@@]12CCN(c3ncccn3)[C@@]1([H])CCN2C(=O)NC(C)C	-6.623	-	20.03
Cc1nc(-c2ccsc2)ccc1C(=O)O	-5.022	19.47	14.55
CN(C)C(=O)N1CCOCC2(CCN(c3ccccn3)C2)C1.O=C(O)C(F)(F)F (stereo not drawn)	-41.34	-	2.204
CNC(=O)NC(=O)CSC(C)c1ccccc1F (stereo not drawn)	-6.255	15.84	22.3

7 of the entries, repeated:

| structure | A | B | C |
|---|---|---|---|
| `CN(Cc1ccncc1)C1CC2(CCN(c3ncc(F)cn3)CC2)C1` | - | 22.63 | - |
| `CCC(CO)NCc1ccc(-c2ccc(F)c(Cl)c2)o1` (stereo not drawn) | - | 22.63 | - |
| `COc1ccc(C(C)N(C)Cc2c(C3CC3)[nH]c3ncccc23)cc1` (stereo not drawn) | - | 22.33 | - |
| `Cc1nc(C)n(CC2CCCN(CCOc3cccc(C#N)c3)C2)n1` (stereo not drawn) | -3.734 | -3.922 | -31.62 |
| `Cc1csc(CN2CC(CO)Oc3ccccc32)n1` (stereo not drawn) | -12.28 | 4.348 | 26.95 |
| `N#CC1(C(=O)N2CCN(Cc3cscn3)CC2)CCCCC1` | -17.65 | 20.67 | - |
| `CNC(=O)NC(=O)CSC(C)c1ccccc1F` (stereo not drawn) | -6.255 | 15.84 | 22.3 |

Data taken from ChEMBL document CHEMBL3988442, “University of Dundee, Small-Polar-MMV Screening Library” (2021).